Data set [1] can be described thus: In vitro bioluminescence spectra of luciferase extracts. The data set is classed as biochemical. As to conditions: for in vitro bioluminescence spectrum peak (λmax): 0.1 M Tris-HCl buffer, pH 8.0; for half bandwidth of bioluminescence spectrum: in vitro spectrum.
Data set [2] deals with E. coli SOLR cells carrying luciferase insert. Description: Bacterial in vivo bioluminescence spectra. It is filed as cell-based, Echerichia coli. The conditions noted are these: bacterial suspension, D-luciferin in sodium citrate buffer pH 5.0.

B1: PhRE: recombinant red light-emitting luciferase of Phrixothrix hirtus head lanterns, 546 amino acid residues (protein, listed as Phrixothrix hirtus)
chain: MEEENVVNGDRPRDLVFPGTAGLQLYQSLYKYSYITDGIIDAHTNEVISYAQIFETSCRLAVSLEKYGLDHNNVVAICSENNIHFFGPLIAALYQGIPMATSNDMYTEREMIGHLNISKPCLMFCSKKSLPFILKVQKHLDFLKRVIVIDSMYDINGVECVFSFDSRNTDHAFDPVKFNPKEFDPLERTALIMTSSGTTGLPKGVVISHRSITIRFVHSSDPIYGTRIAPDTSILAIAPFHHAFGLFTALAYFPVGLKIVMVKKFEGEFFLKTIQNYKIASIVVPPPIMVYLAKSPLVDEYNCSSLTEIASGGSPLGRDIADKVAKRLKVHGILQGYGLTETCSALILSPNDRELKKGAIGTPMPYVQVKVIDINTGKALGPREKGEICFKSQMLMKGYHNNPQATRDALDKDGWLHTGDLGYYDEDRFIYVVDRLKELIKYKGYQVAPAELENLLLQHPNISDAGVIEFRTNLLVNYLSACVVLEPGKTMTEKEVQDYIAELVTTTKHLRGGVVFIDSIPKGPTGKLMRNELRAIFAREQAKSKL
B1: in data set [1], the “in vitro bioluminescence spectrum peak (λmax)” value is listed as 622 nm and the “half bandwidth of bioluminescence spectrum” value turned out to be 55 nm. In data set [1] (in part due to distinct equipment), the “blue shift of in vitro spectrum in relation to native enzyme from P. hirtus head lanterns” value was found to be 6 nm. Moreover, the “shift of spectrum peak in relation to PvGR luciferase” value in data set [1] (in vivo and in vitro spectra) was 73 nm. Also, the “in vivo bioluminescence spectrum peak (λmax)” value in data set [2] came out at 622 nm.

B2: Phrixothrix vivianii green light-emitting luciferase PvGR, recombinant, wild type, SEQ ID NO: 2 (Phrixothrix vivianii) (protein)
chain: MEEENIRHGERPRDIVHPGSAGQQLYQSLYKFASFPEAIIDAHTNEVISYAQIFETSCRLAVSIEQYGLNENNVVGVCSENNINFFNPVLAALYLGIPVATSNDMYTDGELTGHLNISKPTIMFSSKKALPLILRVQQNLSFIKKVVVIDSMYDINGVECVSTFVARYTDHTFDPLSFTPKDFDPLEKIALIMSSSGTTGLPKGVVLSHRSLTIRFVHSRDPIYGTRTVPQTSILSLVPFHHAFGMFTTLSYFVVGLKVVMLKKFEGALFLKTIQNYKIPTIVVAPPVMVFLAKSPLVDQYDLSSLTEVATGGAPLGKDVAEAVAKRLKLPGIIQGYGLTETCCAVMITPHNAVKTGSTGRPLPYIKAKVLDNATGKALGPGERGEICFQSEMIMKGYYNNPEATIDTIDKDGWLHSGDIGYYDEDGNFFIVDRLKELIKYKGYQVAPAELENLLLQHPSIADAGVTGVPDEFGGQLPAACVVLESGKTLTEKEVQDFIAAQVTPTKHLRGGVVFVDSIPKGPTGKLIRKELREIFAQRAPKSKL
For B2, in data set [1], the “in vitro bioluminescence spectrum peak (λmax)” value came out at 549 nm and the “half bandwidth of bioluminescence spectrum” value amounted to 70.5 nm. In addition, the “in vivo bioluminescence spectrum peak (λmax)” value in data set [2] stood at 549 nm.

These data come from patent US7276363B2, “Nucleic acid molecules encoding red and green emitting luciferases” (Toyo Boseki Kabushiki Kaisha, priority 1998, dated 2007).
